This assay is described as follows: qHTS Assay for Lipid Storage Modulators in Drosophila S3 Cells.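 On cell number change: cells counted by Cell Tracker Red CMTPX staining in the red channel.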 The settings on record: BODIPY lipid droplet fluorescence, 18-24 h; for cell number change: measured here: cell count max response, cells fed with added oleic acid. A digest of the protocol:
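Drosophila S3 cells got compounds at several concentrations plus oleic acid (400 uM solution). Laser-scanning cytometry with 488 nm excitation read lipid droplets at 500-530 nm and cells at 575-640 nm. Percent activity was relative to 20 uM Triacsin C.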
On the technique in general: qHTS replaces the single test concentration by a dilution series.

Where [1] appears, read: measured here: cell number channel AC50, cells fed with added oleic acid.
[2] abbreviates: measured here: lipid fluorescence (Fed channel) AC50, cells fed with added oleic acid.

Here are results for 37 compounds from PubChem BioAssay AID2685 (National Center for Advancing Translational Sciences (NCATS), 2010).

This is one part of the list. These are further read-outs of the screen, such as a control signal, another cell line or another target. No call is given for them. The list favours compounds with an active or inconclusive main result. The note in brackets gives the kind of curve behind each potency; many fits are weak.

Consider `O=C(NCC(=O)N1CCN(c2ccccc2O)CC1)c1ccc2ccccc2c1`, for which the cell number change stood at 7.92%. Further, the AC50 (usually the concentration at which the activity in the assay is half-maximal) under setting [1] was 0.00731 µM [rising, full curve, poor fit].
As for `COC(=O)C1=C(C)N(c2ccccc2)C(=S)NC1c1ccccc1C(F)(F)F` (stereo not given), the cell number change was found to be 20.3%. In addition, the AC50 under setting [1] was 2.91 µM [rising, single point].
Consider `CC(=NCC1CCCO1)c1c(O)[nH]c(=O)[nH]c1=O` (stereo not given), for which the cell number change amounted to 0.782%. For the same compound, the AC50 under setting [2] was 20.6 µM [falling, partial curve].
Turning to `CCOC(=O)CSC1=C(C#N)C(c2ccccc2OC)CC(=O)N1` (stereo not given), the cell number change was -34.9%. The AC50 under setting [1] was 1.84 µM [falling, full curve]. For the same compound, the AC50 under setting [2] was 2.06 µM [falling, full curve].
Consider `Cc1ccc(C(=O)Nc2ccccc2NC(=O)c2ccc(C)o2)o1`, for which the cell number change was -7.28%.
Consider `CC(C)N1CCc2c(sc(NC(=O)c3cc(-c4cccs4)nc4ccccc34)c2C(N)=O)C1`, for which the cell number change amounted to 23.6%. The concentration at half-maximal activity (AC50) under setting [2] is 6.51 µM [falling, partial curve].
For `CCOc1ccc(CN2CCN(C3CCC3)CC2CCO)cc1` (stereo not given), the cell number change was 4.69%. Moreover, the AC50 under setting [2] was 0.13 µM [falling, full curve, poor fit].
In the case of `C(=C\c1nc(N2CCCCCC2)c2ccccc2n1)/c1ccccc1`, the cell number change was -38.8%. For the same compound, under setting [1], the AC50 was 18.4 µM [falling, single point]. Moreover, the half-maximal activity concentration (AC50) under setting [2] was 16.4 µM [falling, single point].
On to `O=C(O)CCc1ccc(-c2ccc(F)cc2)n1CCC(=O)O`, for which the cell number change was -35.8%. Moreover, the AC50 under setting [1] was 3.66 µM [falling, full curve]. Also, the AC50 under setting [2] is 16.4 µM [falling, single point].
For the compound `COc1ccc(C2NCCO2)cc1OC` (stereo not given), the cell number change came to 15%. Also, the half-maximal activity concentration (AC50) under setting [1] was 2.31 µM [falling, single point].
As to `O=C(Cc1c(O)c2ccccc2oc1=O)c1ccc(F)cc1`, the cell number change worked out at 38.4%.
In the case of `Cc1ccc(C(=O)N2CCN(c3cccc(C)c3C)CC2)o1`, the cell number change is -3.87%. Also, under setting [2], the AC50 is 6.51 µM [rising, single point].
`O=C1C=C(c2cc(C(F)(F)F)cc(C(F)(F)F)c2)C[C@@H](c2ccc(Cl)cc2)C1`: the cell number change was -54.8%. Besides, the AC50 under setting [1] was 6.51 µM [falling, partial curve]. The AC50 under setting [2] is 5.8 µM [falling, partial curve].
Regarding `O=S(=O)(Cc1ccc(Cl)cc1)Nc1ccc2c(c1)OCO2`, the cell number change is -23.1%. Also, under setting [1], the AC50 was 1.46 µM [falling, full curve, poor fit]. Besides, under setting [2], the AC50 is 0.13 µM [falling, full curve].
Consider `COc1ccc(Cl)cc1NC(=O)Cn1cccc1`, for which the cell number change was 13.3%.
As for `O=C(NNC1OC(CO)C(O)C(O)C1O)c1cccc(Br)c1` (stereo not given), the cell number change came out at 46.4%. Under setting [1], the AC50 is 29.1 µM [rising, single point]. Also, the AC50 under setting [2] is 20.6 µM [rising, single point].
As to `Cn1c(CC(=O)Nc2ccccc2F)nnc1SCC(=O)NC1CCCC1`, the cell number change was -13.2%. Further, the AC50 under setting [1] was 0.731 µM [rising, single point].
As to `CCOC(=O)N/N=C\c1ccc(OC/C=C/c2ccccc2)cc1`, the cell number change stood at 18.3%. Further, the AC50 under setting [1] was 0.517 µM [rising, partial curve, poor fit].
Take `O=C(/C=C/c1ccccc1)N/C(=C/c1ccccc1)C(=O)N1CCOCC1`: the cell number change was -0.94%. The AC50 under setting [2] is 6.51 µM [rising, single point].
For `CCOc1ccc2nc(NC(=O)CSCC(=O)Nc3cc(C)on3)sc2c1`, the cell number change is 2.21%.
On to `O=c1c(C/C=C/c2ccccc2)c(O)ccn1Cc1cccc(Cl)c1`, for which the cell number change is -29.1%. The AC50 under setting [2] is 2.91 µM [falling, partial curve, poor fit].
As for `CC(C)c1ccc(OCC(O)CNC(C)c2ccccc2)cc1` (stereo not given), the cell number change is -11.7%. The AC50 under setting [1] was 0.731 µM [rising, full curve]. The AC50 under setting [2] is 29.1 µM [falling, single point].
With `CCCn1c(=O)c2sccc2n2c(CCCC(=O)NCc3ccco3)nnc12`, the AC50 under setting [2] was 9.2 µM [falling, partial curve].
Turning to `COC(=O)c1ccc(OCC(O)CN2C(=O)c3ccccc3S2(=O)=O)cc1` (stereo not given), the cell number change was -21.9%. Also, the AC50 under setting [2] was 23.1 µM [falling, single point].
With `CC(=O)c1ccccc1NC(=O)COC(=O)/C(=C/c1ccccc1)n1nnnc1C`, the AC50 under setting [2] is 6.51 µM [falling, partial curve].
Take `COc1cccc(-c2nn(-c3ccc(F)cc3)cc2C(=O)NCC2CCCO2)c1` (stereo not given): under setting [2], the concentration at half-maximal activity (AC50) was 29.1 µM [falling, single point].
Consider `COCCN(CCOC)S(=O)(=O)c1ccc(C(=O)Nc2nnc(C3CC3)o2)cc1`, for which, under setting [2], the AC50 is 0.082 µM [falling, full curve].
For `CC(c1ccc(Cl)cc1)n1c(-c2ccc3ccccc3n2)n[nH]c1=S` (stereo not given), the cell number change was -37.9%. The AC50 under setting [2] was 29.1 µM [falling, single point].
As to `Cc1noc(/C=C/N(C)C)c1S(=O)(=O)N1CCCC(C(=O)Nc2ccc3c(c2)OCO3)C1` (stereo not given), the AC50 is, setting by setting: under setting [1], 0.731 µM [rising, partial curve]; under setting [2], 1.03 µM [rising, partial curve].
In the case of `O=C(Nc1cccc(S(=O)(=O)N2CCCCC2)c1)Nc1ccc(Cl)cc1Cl`, the cell number change was 10%. Also, the concentration at half-maximal activity (AC50) under setting [1] was 2.91 µM [rising, single point]. Besides, the concentration at half-maximal activity (AC50) under setting [2] was 3.26 µM [rising, single point].
Consider `COc1ccc(C(=O)NNC(=O)Cc2ccc(Cl)cc2)cc1`, for which the cell number change turned out to be 13.3%. For the same compound, the AC50 under setting [2] was 8.2 µM [rising, partial curve].
As for `Cc1ccc(S(=O)(=O)Nc2ccc(N=Nc3ccc(O)cc3)cc2)cc1`, the cell number change was -40%. For the same compound, the concentration at half-maximal activity (AC50) under setting [1] was 7.31 µM [falling, partial curve]. In addition, the AC50 under setting [2] was 1.03 µM [falling, full curve, poor fit].
As to `CCOc1ccccc1OCCOCCOc1c(Cl)cccc1Cl`, the cell number change stood at 3.33%. Moreover, the concentration at half-maximal activity (AC50) under setting [2] was 23.1 µM [rising, single point].
With `O=C(Nc1ccc(S(=O)(=O)N2CCOCC2)cc1)C1CC(=O)N(c2ccc(F)cc2)C1` (stereo not given), the cell number change is -17.1%.
With `O=C(CCCn1c(=O)c2sccc2n(CC(=O)OCc2ccccc2)c1=O)NCc1ccco1`, the cell number change was -22.7%. Also, the AC50 under setting [2] was 20.6 µM [falling, single point].
Turning to `Cc1ccc(S(=O)(=O)N2CCC(=O)N(CCOCc3ccccc3)CC2)cc1`, the cell number change was 24.9%. Further, the AC50 under setting [2] is 11.6 µM [rising, partial curve].
Turning to `Cc1ccc(C)c(C(=O)CN2C(=O)NC3(CCc4ccccc43)C2=O)c1` (stereo not given), the cell number change came to 6.26%. For the same compound, under setting [1], the AC50 is 3.66 µM [rising, single point]. In addition, the AC50 under setting [2] was 1.64 µM [rising, full curve, poor fit].
